No constants are given. Whether binding was seen depends on the method and setting. Some entries that bind do so weakly or less than the wild type.

The target in this test is T1, truncated Bid labelled with Alexa647 (tBid-Alexa647) (murine), P70444.
T1 chain: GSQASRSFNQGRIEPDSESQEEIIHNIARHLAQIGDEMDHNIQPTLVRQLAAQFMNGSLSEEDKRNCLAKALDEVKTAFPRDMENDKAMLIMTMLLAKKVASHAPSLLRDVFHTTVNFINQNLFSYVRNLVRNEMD
Nature of the test: single particle fluorescence intensity (stoichiometry) analysis of confocal images; same bilayer and images as a1; event intensity normalised by the monomer brightness measured by FCS and binned into putative monomers, dimers, etc.; both purified. The following applies: remark: other sources report otherwise.

B1: truncated Bid labelled with Alexa647 (tBid-Alexa647), P70444 60-195 (domain or fragment)
chain: GSQASRSFNQGRIEPDSESQEEIIHNIARHLAQIGDEMDHNIQPTLVRQLAAQFMNGSLSEEDKRNCLAKALDEVKTAFPRDMENDKAMLIMTMLLAKKVASHAPSLLRDVFHTTVNFINQNLFSYVRNLVRNEMD
modifications: here or on the partner: Alexa647 bound by maleimide chemistry to the cysteine residue at position 126; Alexa647 bound by maleimide chemistry to the cysteine residue at position 126
With B1, the binding entry is “binds”.

For the origin of these results see paper PMC8348223.
